{"source": "PubChem BioAssay AID652259 (Drosophila RNAi Screening Center, 2013)", "screen": "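Knock-downs that push a Wingless-driven reporter up or down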 (primary screen)", "cells": "Drosophila clone 8 imaginal disc epithelial cells", "reagents": "long dsRNA against Drosophila genes", "treatment": "pathway stimulated by co-transfected Wingless expression plasmid", "measured": "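Firefly luciferase from a tcf-site Wingless reporter, measured alongside co-transfected Renilla luciferase that tracks transfection; pathway stimulated by a Wingless plasmid; the firefly-to-Renilla ratio is not deposited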", "reading the numbers": "firefly reporter light: higher = more Wg reporter light, before normalisation; Renilla control light: higher = more transfected or surviving cells", "call rule": "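Strong candidates differ from their plate mean by at least two out of four per-plate statistical tests; weak candidates meet just one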", "calls": "active = candidate regulator (raises or lowers reporter); inactive = not a candidate", "note": "The deposit covers about 22,000 reagents; this is a random part of those with a known target gene and a result. In the full data, 233 (1.1%) are marked active. 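Light values are raw, unnormalised plate reads; the ratio scores behind the reporter calls were not deposited.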 A number with no mark means an inactive call. Reagent sequences are not shown. Not stated in the record: the amount of reagent, the time to read-out, the dose of the treatment."}
{"gene": "mRpL27 (mitochondrial ribosomal protein L27)", "DRSC id": "DRSC22568", "firefly reporter light, replicate 1": 6.11e5, "firefly reporter light, replicate 2": 7.01e5, "Renilla control light, replicate 1": 2.10e5, "Renilla control light, replicate 2": 1.43e5}
{"gene": "CG34015", "DRSC id": "DRSC19140", "firefly reporter light, replicate 1": 3480, "Renilla control light, replicate 1": 900}
{"gene": "Pdha (Pyruvate dehydrogenase E1 alpha subunit)", "DRSC id": "DRSC18413", "firefly reporter light, replicate 1": 23568, "Renilla control light, replicate 1": 9529}
{"gene": "CG10019", "DRSC id": "DRSC00279", "firefly reporter light, replicate 1": 2320, "firefly reporter light, replicate 2": 3795, "Renilla control light, replicate 1": 625, "Renilla control light, replicate 2": 1424}
{"gene": "B-H1 (BarH1)", "DRSC id": "DRSC19334", "firefly reporter light, replicate 1": 31540, "Renilla control light, replicate 1": 10663}
{"gene": "B-H1 (BarH1)", "DRSC id": "DRSC21922", "firefly reporter light, replicate 1": 6.71e5, "firefly reporter light, replicate 2": 5.71e5, "Renilla control light, replicate 1": 2.75e5, "Renilla control light, replicate 2": 2.77e5}
{"gene": "CG30015", "DRSC id": "DRSC05241", "firefly reporter light, replicate 1": 22267, "Renilla control light, replicate 1": 13840}
{"gene": "CG30015", "DRSC id": "DRSC07027", "firefly reporter light, replicate 1": 15936, "Renilla control light, replicate 1": 2261}
{"gene": "CG30015", "DRSC id": "DRSC07028", "firefly reporter light, replicate 1": 2185, "firefly reporter light, replicate 2": 6181, "Renilla control light, replicate 1": 744, "Renilla control light, replicate 2": 2128}
{"gene": "Zdhhc8 (Zinc finger DHHC-type containing 8)", "DRSC id": "DRSC18044", "reporter change call, replicate 1": "Wg reporter activity raised (active)", "firefly reporter light, replicate 1": 29384, "Renilla control light, replicate 1": 3869}
{"gene": "Zdhhc8 (Zinc finger DHHC-type containing 8)", "DRSC id": "DRSC18122", "firefly reporter light, replicate 1": 22163, "Renilla control light, replicate 1": 9842}

The list goes on (3 carried over from the part before).
{"gene": "CG30015", "DRSC id": "DRSC07028", "firefly reporter light, replicate 1": 2185, "firefly reporter light, replicate 2": 6181, "Renilla control light, replicate 1": 744, "Renilla control light, replicate 2": 2128}
{"gene": "Zdhhc8 (Zinc finger DHHC-type containing 8)", "DRSC id": "DRSC18044", "reporter change call, replicate 1": "Wg reporter activity raised (active)", "firefly reporter light, replicate 1": 29384, "Renilla control light, replicate 1": 3869}
{"gene": "Zdhhc8 (Zinc finger DHHC-type containing 8)", "DRSC id": "DRSC18122", "firefly reporter light, replicate 1": 22163, "Renilla control light, replicate 1": 9842}
{"gene": "Ccp84Ab", "DRSC id": "DRSC12587", "firefly reporter light, replicate 1": 16081, "Renilla control light, replicate 1": 4011}
{"gene": "Su(var)2-HP2", "DRSC id": "DRSC06204", "firefly reporter light, replicate 1": 13728, "Renilla control light, replicate 1": 3513}
{"gene": "Rdh (Red herring)", "DRSC id": "DRSC08063", "firefly reporter light, replicate 1": 1909, "Renilla control light, replicate 1": 310}
{"gene": "Rdh (Red herring)", "DRSC id": "DRSC08434", "reporter change call, replicate 1": "Wg reporter activity raised", "firefly reporter light, replicate 1": 4086, "Renilla control light, replicate 1": 871}
{"gene": "Skadu", "DRSC id": "DRSC01490", "firefly reporter light, replicate 1": 22747, "Renilla control light, replicate 1": 9815}
{"gene": "CR41501 (pseudo)", "DRSC id": "DRSC07785", "firefly reporter light, replicate 1": 19927, "Renilla control light, replicate 1": 10131}
{"gene": "CG13088", "DRSC id": "DRSC02192", "firefly reporter light, replicate 1": 2901, "firefly reporter light, replicate 2": 8355, "Renilla control light, replicate 1": 908, "Renilla control light, replicate 2": 2968}
{"gene": "CG13615", "DRSC id": "DRSC14618", "firefly reporter light, replicate 1": 24048, "Renilla control light, replicate 1": 15692}
{"gene": "OSCP1", "DRSC id": "DRSC06304", "firefly reporter light, replicate 1": 5431, "Renilla control light, replicate 1": 2237}
{"gene": "CG31751", "DRSC id": "DRSC02464", "firefly reporter light, replicate 1": 3881, "firefly reporter light, replicate 2": 8092, "Renilla control light, replicate 1": 413, "Renilla control light, replicate 2": 3266}
{"gene": "CG31751", "DRSC id": "DRSC02465", "firefly reporter light, replicate 1": 1995, "firefly reporter light, replicate 2": 8689, "Renilla control light, replicate 1": 329, "Renilla control light, replicate 2": 3392}
{"gene": "Upf3", "DRSC id": "DRSC04092", "firefly reporter light, replicate 1": 7586, "Renilla control light, replicate 1": 3024}
{"gene": "CR33315 (pseudo)", "DRSC id": "DRSC22947", "firefly reporter light, replicate 1": 6.12e5, "firefly reporter light, replicate 2": 6.14e5, "Renilla control light, replicate 1": 2.77e5, "Renilla control light, replicate 2": 1.09e5}
{"gene": "rad (retired record)", "DRSC id": "DRSC18966", "firefly reporter light, replicate 1": 4023, "Renilla control light, replicate 1": 1303}
{"gene": "rad (retired record)", "DRSC id": "DRSC19687", "firefly reporter light, replicate 1": 26633, "Renilla control light, replicate 1": 12038}
{"gene": "rad (retired record)", "DRSC id": "DRSC19816", "firefly reporter light, replicate 1": 12506, "Renilla control light, replicate 1": 2235}
{"gene": "rad (retired record)", "DRSC id": "DRSC22865", "firefly reporter light, replicate 1": 6.42e5, "firefly reporter light, replicate 2": 6.94e5, "Renilla control light, replicate 1": 2.15e5, "Renilla control light, replicate 2": 3.03e5}
